Results are given in words; binding and its absence hold for the method and conditions named.
molecular target: guinea pig IL-17A (guinea pig); test: binding ELISA

| Binder | binding |
| --- | --- |
| 02A08 (VHH) VHH: EVQLVESGGGVVQPGGSLRLSCADSERSFSFNAMGWFRQAPGKEREFVAAISATGDDTYYADSVKGRFAISRDTARNTVYLQMNSLKPEDTAVYYCGARVNFDGTVSYTNDYAYWGQGTQVTVSS | no binding (tested: 250 nM) |
| 11A06 (VHH) VHH: EVQLVESGGGLVQPGESLRLSCKASGFSLDYYALGWFRQAPGKEREGISCITSSDASAYYTDSVKGRFTISRDNSKNTVYLQMNSLKTEDTAIYYCAAALLTCSSYYDAYTYWGQGTQVTVSS | no binding (tested: 250 nM) |
| 04G01 (VHH) VHH: EVQLVESGGGLVQAGGSQRLSCTASGTIVNIHVMGWYRQAPGKQRELVALIFSGGSADYADSVKGRFTISRDNAKNTVYLEMNSLKAEDTAVYYCAAEIGYYSGGTYYSSEAHWGQGTQVTVSS | no binding (tested: 250 nM) |
| 09G10 (VHH) VHH: EVQLVESGGGLVQAGGSLRLSCAASDSVFTAKAVGWYRQPPGLQREWVAIITSGGKTNYADSSVKGRFTVSVDKVKNTVTLQMNSLKPEDTAVYYCYAQWMGRDYWGQGTQVTVSS | no binding (tested: 250 nM) |
| 04B09 (VHH) VHH: EVQLVESGGGLVQPGGSLRLSCAASGFTLGYYAIGWFRQAPGKEREGVSCDSSSDGDTYYANSVKGRFTISTDNGKNTVYLQMNSLKPEDTAVYYCATCTDWNYDYWGQGTQVTVSS | no binding (tested: 250 nM) |
| 03C07 (VHH) VHH: EVQLVESGGGLVQAGGSLRLSCAASGFTFDDYAIGWFRQAPGKEREAVSCFSSSDGSIYYADSVKGRFTISSDNAKNTVYLQMNSLKPEDTAVYYCAGGGGSYYYTQLNYCYDMDYWGKGTQVTVSS | no binding (tested: 250 nM) |
| 01A01 (VHH) VHH: EVQLVESGGGLVQAGGSLRLSCAASGFTFDDYDIGWFRQAPGKEREGVSCFTSSDGRTFYADSVKGRFTVSADNAKNTVYLQMNSLEPEDTAVYFCAAVNTFDESAYAAFACYDVVRWGQGTQVTVSS | no binding (tested: 250 nM) |

Results, then the binder that gave them:

| binding | Binder |
| --- | --- |
| no binding (tested: 250 nM) | 11C08 (VHH) VHH: EVQLVESGGGLVQAGGSLRLSCAASGVIFRLNAMGWYRAAPGKQRELVAIIVNGGSTNYADSVKGRFTISRDSAKNAVYLQMNSLKPEDTAVYYCYYNIPGDVYWGQGTQVTVSS |
| no binding (tested: 250 nM) | 13E02 (VHH) VHH: EVQLVESGGGLVQAGGSLRLSCAASGRTYDAMGWLRQAPGKEREFVAAISGSGDDTYYADSVKGRFTISKDNAGITMYLQMNSLKPEDTAVYYCATRRGLYYVWDSNDYENWGQGTQVTVSS |
| no binding (tested: 250 nM) | 13B05 (VHH) VHH: EVQLVESGGRLVQAGGSLRLSCAASGRTFTSYPMGWFRQAPGKEREFVAAISMSGDDTAYTDFVRGRFTISRDDARNTVYLHMTSLKPEDTAVYYCAARTSYDGTYDYIDDYSYWGQGTQVTVSS |
| no binding (tested: 250 nM) | 17C01 (VHH) VHH: EVQLVESGGRLVQAGGSLRLPCAASGRTFTSYPMGWFRQAPGKEREFVAAISMSGDDAAYADFVRGRFTISRDDARNTVYLHMTSLKPEDTAVYYCAARTSYDGTYDYIDDYSYWGQGTQVTVSS |
| no binding (tested: 250 nM) | 13B03 (VHH) VHH: EVQLVESGGGSVQAGDSLRLSCAASGRANSINWFGWFRQTPGKEREFVAGIRWSDAYTEYANSVKGRFTISRDNAKNTVDLQMDSLKPEDTAVYYCVLDLSTVRYWGQGTQVTVSS |

From US20210130452A1
